# The supplement of paper PMC8728848
# This is one part of the list.
# B1: Flo1 (Saccharomyces cerevisiae), P32768 (protein)
# chain: SGATEACLPAGQRKSGMNINFYQYSLKDSSTYSNAAYMAYGYASKTKLGSVGGQTDISIDYNIPCVSSSGTFPCPQEDSYGNWGCKGMGACSNSQGIAYWSTDLFGFYTTPTNVTLEMTGYFLPPQTGSYTFKFATVDDSAILSVGGATAFNCCAQQQPPITSTNFTIDGIKPWGGSLPPNIEGTVYMYAGYYYPMKVVYSNAVSWGTLPISVTLPDGTTVSDDFEGYVYSFDDDLSQSNCTVPDPSNY
# Experiments:
# Assay in all cases: glycan array binding signal (z-score within array); higher = stronger binding
# Settings in all cases: glycan notation: IUPAC condensed, linker removed
# Man(a1-6)Man = biological target: Man(a1-6)Man
# Outline: (§1)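 Glycan array data were curated from 3228 arrays in the Consortium for Functional Glycomics database and kept only where the protein sequence was available. Glycan names were converted to IUPAC-condensed notation, and columns mapping to the same glycan were averaged. The binding signal is a within-array Z-score, averaged across arrays of the same protein sequence at different concentrations or buffers and across linkers. Negative Z-scores can be read as non-binding.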
# Man(b1-4)GlcNAc = biological target: Man(b1-4)GlcNAc
# Outline: as §1
# MurNAc(b1-4)GlcNAc = biological target: MurNAc(b1-4)GlcNAc
# Outline: as §1
# Neu5Ac(a2-3)Gal = biological target: Neu5Ac(a2-3)Gal
# Outline: as §1
# [1] = biological target: Neu5Ac(a2-3)Gal(b1-3)GalNAc
# Outline: as §1
# [2] = biological target: Neu5Ac(a2-3)Gal(b1-3)GalNAc(b1-3)Gal(a1-4)Gal(b1-4)Glc
# Outline: as §1
# [3] = biological target: Neu5Ac(a2-3)Gal(b1-3)GalNAc(b1-4)Gal(b1-4)Glc
# Outline: as §1
# [4] = biological target: Neu5Ac(a2-3)Gal(b1-3)GalNAc(b1-4)[Neu5Ac(a2-3)]Gal(b1-4)Glc
# Outline: as §1
# [5] = biological target: Neu5Ac(a2-3)Gal(b1-3)GalNAc(b1-4)[Neu5Ac(a2-8)Neu5Ac(a2-3)]Gal(b1-4)Glc
# Outline: as §1
# [6] = biological target: Neu5Ac(a2-3)Gal(b1-3)GalNAc6S
# Outline: as §1
# [7] = biological target: Neu5Ac(a2-3)Gal(b1-3)GlcNAc
# Outline: as §1
# [8] = biological target: Neu5Ac(a2-3)Gal(b1-3)GlcNAc(b1-2)Man
# Outline: as §1
# [9] = biological target: Neu5Ac(a2-3)Gal(b1-3)GlcNAc(b1-2)Man(a1-3)[GlcNAc(b1-4)][Neu5Ac(a2-3)Gal(b1-3)GlcNAc(b1-2)Man(a1-6)]Man(b1-4)GlcNAc(b1-4)GlcNAc
# Outline: as §1
# [10] = biological target: Neu5Ac(a2-3)Gal(b1-3)GlcNAc(b1-2)Man(a1-3)[Neu5Ac(a2-3)Gal(b1-3)GlcNAc(b1-2)Man(a1-6)]Man(b1-4)GlcNAc(b1-4)GlcNAc
# Outline: as §1
# [11] = biological target: Neu5Ac(a2-3)Gal(b1-3)GlcNAc(b1-2)[Neu5Ac(a2-3)Gal(b1-3)GlcNAc(b1-4)]Man(a1-6)[Neu5Ac(a2-3)Gal(b1-3)GlcNAc(b1-2)Man(a1-3)]Man(b1-4)GlcNAc(b1-4)GlcNAc
# Outline: as §1
# [12] = biological target: Neu5Ac(a2-3)Gal(b1-3)GlcNAc(b1-3)Gal(b1-3)GlcNAc
# Outline: as §1
# [13] = biological target: Neu5Ac(a2-3)Gal(b1-3)GlcNAc(b1-3)Gal(b1-4)GlcNAc
# Outline: as §1
# [14] = biological target: Neu5Ac(a2-3)Gal(b1-3)GlcNAc(b1-3)GalNAc
# Outline: as §1
# [15] = biological target: Neu5Ac(a2-3)Gal(b1-3)GlcNAc(b1-6)GalNAc
# Outline: as §1
# [16] = biological target: Neu5Ac(a2-3)Gal(b1-3)GlcNAc6S
# Outline: as §1
# [17] = biological target: Neu5Ac(a2-3)Gal(b1-3)[Fuc(a1-4)]GlcNAc
# Outline: as §1
# [18] = biological target: Neu5Ac(a2-3)Gal(b1-3)[Fuc(a1-4)]GlcNAc(b1-3)Gal(b1-3)[Fuc(a1-4)]GlcNAc
# Outline: as §1
# [19] = biological target: Neu5Ac(a2-3)Gal(b1-3)[Fuc(a1-4)]GlcNAc(b1-3)Gal(b1-4)[Fuc(a1-3)]GlcNAc
# Outline: as §1
# [20] = biological target: Neu5Ac(a2-3)Gal(b1-3)[GlcNAc(b1-6)]GalNAc
# Outline: as §1
# [21] = biological target: Neu5Ac(a2-3)Gal(b1-3)[Neu5Ac(a2-3)Gal(b1-4)]GlcNAc
# Outline: as §1
# [22] = biological target: Neu5Ac(a2-3)Gal(b1-3)[Neu5Ac(a2-6)]GalNAc
# Outline: as §1
# [23] = biological target: Neu5Ac(a2-3)Gal(b1-3)[Neu5Ac(a2-6)]GlcNAc(b1-3)[Fuc(a1-3)[Gal(b1-4)]GlcNAc(b1-6)]Gal(b1-4)Glc
# Outline: as §1
# [24] = biological target: Neu5Ac(a2-3)Gal(b1-3)]Neu5Ac(a2-3)Gal(b1-4)]GlcNAc
# Outline: as §1
# Neu5Ac(a2-3)Gal(b1-4)Glc = biological target: Neu5Ac(a2-3)Gal(b1-4)Glc
# Outline: as §1
# [25] = biological target: Neu5Ac(a2-3)Gal(b1-4)GlcNAc
# Outline: as §1
# [26] = biological target: Neu5Ac(a2-3)Gal(b1-4)GlcNAc(b1-2)Man
# Outline: as §1
# [27] = biological target: Neu5Ac(a2-3)Gal(b1-4)GlcNAc(b1-2)Man(a1-3)[GlcNAc(b1-2)Man(b1-4)GlcNAc(b1-2)Man(a1-6)]Man(b1-4)GlcNAc(b1-4)GlcNAc
# Outline: as §1
# [28] = biological target: Neu5Ac(a2-3)Gal(b1-4)GlcNAc(b1-2)Man(a1-3)[GlcNAc(b1-4)][Neu5Ac(a2-3)Gal(b1-4)GlcNAc(b1-2)Man(a1-6)]Man(b1-4)GlcNAc(b1-4)GlcNAc
# Outline: as §1
# [29] = biological target: Neu5Ac(a2-3)Gal(b1-4)GlcNAc(b1-2)Man(a1-3)[Neu5Ac(a2-3)Gal(b1-4)GlcNAc(b1-2)Man(a1-6)]Man(b1-4)GlcNAc(b1-4)GlcNAc
# Outline: as §1
# [30] = biological target: Neu5Ac(a2-3)Gal(b1-4)GlcNAc(b1-2)Man(a1-3)[Neu5Ac(a2-3)Gal(b1-4)GlcNAc(b1-2)Man(a1-6)]Man(b1-4)GlcNAc(b1-4)[Fuc(a1-6)]GlcNAc
# Outline: as §1
# [31] = biological target: Neu5Ac(a2-3)Gal(b1-4)GlcNAc(b1-2)Man(a1-3)[Neu5Ac(a2-6)Gal(b1-4)GlcNAc(b1-2)Man(a1-6)]Man(b1-4)GlcNAc(b1-4)GlcNAc
# Outline: as §1
binder,measurement,setting,value
B1,glycan array binding signal (z-score),Man(a1-6)Man,-0.437
same,glycan array binding signal (z-score),Man(b1-4)GlcNAc,-0.306
same,glycan array binding signal (z-score),MurNAc(b1-4)GlcNAc,-1.12
same,glycan array binding signal (z-score),Neu5Ac(a2-3)Gal,-0.251
same,glycan array binding signal (z-score),[1],0.519
same,glycan array binding signal (z-score),[2],-0.211
same,glycan array binding signal (z-score),[3],-0.327
same,glycan array binding signal (z-score),[4],0.362
same,glycan array binding signal (z-score),[5],1.62
same,glycan array binding signal (z-score),[6],-0.511
same,glycan array binding signal (z-score),[7],-0.296
same,glycan array binding signal (z-score),[8],0.169
same,glycan array binding signal (z-score),[9],0.249
same,glycan array binding signal (z-score),[10],0.882
same,glycan array binding signal (z-score),[11],0.399
same,glycan array binding signal (z-score),[12],-0.65
same,glycan array binding signal (z-score),[13],-0.351
same,glycan array binding signal (z-score),[14],-0.549
same,glycan array binding signal (z-score),[15],-0.292
same,glycan array binding signal (z-score),[16],-0.518
same,glycan array binding signal (z-score),[17],-0.641
same,glycan array binding signal (z-score),[18],0.24
same,glycan array binding signal (z-score),[19],0.041
same,glycan array binding signal (z-score),[20],0.001
same,glycan array binding signal (z-score),[21],-0.8
same,glycan array binding signal (z-score),[22],0.914
same,glycan array binding signal (z-score),[23],-0.301
same,glycan array binding signal (z-score),[24],-0.5
same,glycan array binding signal (z-score),Neu5Ac(a2-3)Gal(b1-4)Glc,0.241
same,glycan array binding signal (z-score),[25],-0.097
same,glycan array binding signal (z-score),[26],-0.214
same,glycan array binding signal (z-score),[27],0.092
same,glycan array binding signal (z-score),[28],1.01
same,glycan array binding signal (z-score),[29],-0.213
same,glycan array binding signal (z-score),[30],0.086
same,glycan array binding signal (z-score),[31],-0.151

# Quoted at random: 2 entries already listed.
binder,measurement,setting,value
B1,glycan array binding signal (z-score),[20],0.001
same,glycan array binding signal (z-score),[13],-0.351
